Hit rate of the full screen: of about 2,200 compounds, about 15 (0.7%) were called active.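 Rule for the calls: active = fitted half-maximal concentration for loss of luminescence signal no more than a set limit of log units above the top tested concentration; inconclusive = flat fit with 30 to 70% signal loss, or invalid fit; inactive = half-maximal concentration above that set limit.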 The list shows a part of the results.

The experiment in a line: inhibitors of ADP-Glo detection reagents, dose response, artefact control for GSK3beta inhibitor project, biochemical, luminescence, cell-free, homogeneous (AID 434947). The note with it: 5 uM ADP.
Regarding `O=C1NC(c2ccncc2)Nc2sc3c(c21)CCCC3` (stereo not drawn), the EC50 was inactive: > 30 µM.

For `COc1ccc2nc(Cl)cc(Cl)c2c1`, the EC50 is inactive: > 30 µM. Turning to `O=[N+]([O-])c1cc(/C=N/O)ccc1Sc1ccccc1`, the EC50 was inactive: > 30 µM.

For `O=C(CN1CCN(Cc2ccccc2Cl)CC1)N/N=C/c1ccccn1`, the EC50 was inactive: > 30 µM. The figure for `O=C(O)C1C2C=CC(O2)C1C(=O)NCc1ccc(Cl)cc1` (stereo not drawn) is inactive: > 30 µM. Turning to `CC(=O)Nc1cccc2c1C(=O)NC2=O`, the EC50 was inactive: > 30 µM.

`Fc1ccccc1CNc1nc(-c2cccnc2)nc2ccccc12`: the EC50 is inactive: > 30 µM. As to `C(=N\Nc1ncnc2nc[nH]c12)/c1cccs1`, the EC50 is inactive: > 30 µM. With `O=C(NCCCN1CCCC1=O)c1ccc2c(c1)NC(=O)c1ccccc1S2`, the EC50 is inactive: > 30 µM. As to `CN(CCO)c1cc(N2CCC3(CC2)OCCO3)c2nonc2c1[N+](=O)[O-]`, the EC50 was inactive: > 30 µM. `CS(=O)(=O)Nc1cccc(-c2cn3c(n2)SCC3)c1`: the EC50 was inactive: > 30 µM. For `COC(=O)c1nnn(-c2nonc2N)c1CN1CCCC1`, the EC50 is inactive: > 30 µM. For the compound `CCc1ccc(S(=O)(=O)Nc2ccc(O)c3c(=O)cc(-c4ccccc4Cl)oc23)cc1`, the EC50 was inactive: > 30 µM. Turning to `COc1cccc2cc(C(C)=O)c(=O)oc12`, the EC50 is inactive: > 30 µM. Under `COc1ccc(C2CC(=O)N3CN(c4ccc(C)c(Cl)c4)CSC3=C2C#N)cc1` (stereo not drawn) stands inactive: > 30 µM; under `COc1cc(SC)ccc1C(=O)OCC(=O)NCCNC(=O)COC(=O)c1ccc(SC)cc1OC`, inactive: > 30 µM; under `CCOC(=O)c1[nH]c(C)c(C(=O)NCc2ccc(OC)cc2)c1C`, inactive: > 30 µM. Take `O=C(O)Cn1c(=O)c2c3c(sc2n(Cc2ccccc2F)c1=O)CCCC3`: the EC50 is inactive: > 30 µM.

Consider `CCOc1ccc(NC(=O)COC(=O)c2ccc3c(c2)C(=O)N(CCc2ccccc2)C3=O)cc1`, for which the EC50 was inactive: > 30 µM. Under `COc1cccc(C(=O)NNC(=O)c2ccccc2)c1` stands inactive: > 30 µM; under `COc1ccc(C2CC(=O)c3c(O)cc(O)cc3O2)c(CC=C(C)C)c1OC` (stereo not drawn), inactive: > 30 µM. On to `Nc1nc(Nc2ccccc2)nc(NCc2ccco2)c1[N+](=O)[O-]`, for which the EC50 is inactive: > 30 µM.

Consider `COc1ccc(-c2nc(-c3ccccc3)[nH]c(=O)c2C#N)cc1`, for which the EC50 was inactive: > 30 µM. For the compound `Cc1nc(N2CCOCC2)nc(N2CCCCC2C)c1[N+](=O)[O-]` (stereo not drawn), the EC50 is inactive: > 30 µM.

As to `COc1cc(/C=N\NC(=O)c2cccc(Cl)c2)ccc1Oc1ccc([N+](=O)[O-])cn1`, the EC50 is inactive: > 30 µM.

As for `COc1ccc(CCNC(=O)C(C(=O)c2ccccc2)n2cc(Cl)ccc2=O)cc1OC` (stereo not drawn), the EC50 is inactive: > 30 µM. On to `CC1(C)CC(=O)C2=C(C1)Nc1ccccc1NC2c1ccc(F)cc1` (stereo not drawn), for which the EC50 was inactive: > 30 µM.

In the case of `CC(C)Sc1nc2c(c(=O)[nH]1)C(c1cccs1)C1=C(CC(C)(C)CC1=O)N2` (stereo not drawn), the EC50 is inactive: > 30 µM. With `N#Cc1c(N2CCCCC2)nc(N2CCCCC2)c2c1CCN(Cc1ccccc1)C2`, the EC50 was inactive: > 30 µM.

In the case of `CC(C)CC(=O)Nc1ccccc1-c1nnn(CC(=O)N2CCc3ccccc3C2)n1`, the EC50 was inactive: > 30 µM. Take `COc1ccc(-c2nn(-c3ccccc3)cc2C(=O)O)cc1OC`: the EC50 was inactive: > 30 µM. For `O=C1Nc2cc(C(=O)NCCCN3CCOCC3)ccc2S/C1=C/c1cccc(Cl)c1`, the EC50 is inactive: > 30 µM. Regarding `COc1cc(C2C3=C(CC(C)(C)CC3=O)Nc3c2c(=O)[nH]c(=O)n3Cc2ccccc2)ccc1O` (stereo not drawn), the EC50 was inactive: > 30 µM. Turning to `Cc1ccc(SCC(=O)Nc2ccc3c(c2)C(=O)NC3=O)cc1`, the EC50 was inactive: > 30 µM. The figure for `CN(c1ccccc1C(=O)Nc1cccc(C(F)(F)F)c1)S(C)(=O)=O` is inactive: > 30 µM; for `CCOc1ccccc1/C=N/NC(=O)c1nnn(-c2nonc2N)c1CN1CCCCCC1` it is inactive: > 30 µM. For `CC(=O)Nc1ccc(S(=O)(=O)c2cc(O)ccc2O)cc1`, the EC50 is inactive: > 30 µM. Regarding `CCn1nc(NC(=O)CC(C)C)c2cc3cccc(C)c3nc21`, the EC50 was inactive: > 30 µM.

Turning to `O=[N+]([O-])c1cc(/C=N/O)ccc1SCc1ccccc1Cl`, the EC50 is inactive: > 30 µM. Take `O=C(CS(=O)(=O)c1ccccc1)Nc1ncc([N+](=O)[O-])s1`: the EC50 was inactive: > 30 µM. Under `CCN(CC)CCN1C(=O)C(=O)/C(=C(/O)c2ccc(S(=O)(=O)N3CCOCC3)cc2)C1c1ccccc1` (stereo not drawn) stands inactive: > 30 µM.

Regarding `CN1CCc2c(sc(NC(=O)Cc3ccc(F)cc3)c2C(N)=O)C1`, the EC50 is inactive: > 30 µM. The figure for `CCn1nc(NC(=O)c2cccs2)c2cc3ccccc3nc21` is inactive: > 30 µM; for `Cc1cccc(N=Nc2c(C)c(C#N)c(O)[nH]c2=O)c1` it is inactive: > 30 µM.

In the case of `COc1c(CC=C(C)C)cc(C2CC(=O)c3c(O)cc(O)cc3O2)cc1CC=C(C)C` (stereo not drawn), the EC50 was inactive: > 30 µM. For the compound `CC(=O)NCC1COc2ccccc2O1` (stereo not drawn), the EC50 was inactive: > 30 µM. On to `Cc1ccc(C)c(CSc2nnc(-c3cccnc3)o2)c1`, for which the EC50 is inactive: > 30 µM.

For `CC(C)(C)NC(=O)NC(=O)CSc1nncs1`, the EC50 was inactive: > 30 µM. For the compound `N#CCCn1cc(/C=N/O)c(-c2ccc(-c3ccccc3)cc2)n1`, the EC50 is inactive: > 30 µM. The figure for `CCN(CC)C(=O)COc1cc(C)cc2oc(=O)cc(-c3ccccc3)c12` is inactive: > 30 µM. As to `CN(C(=O)CSc1nnc(-c2c[nH]c3ccccc23)o1)C1CCS(=O)(=O)C1` (stereo not drawn), the EC50 is inactive: > 30 µM. Regarding `COc1cccc(C(=O)Nc2nc(C)cs2)c1`, the EC50 is inactive: > 30 µM. In the case of `Cc1c(Cl)cccc1Nc1ccccc1C(=O)O`, the EC50 was inactive: > 30 µM. On to `COc1ccc(N2CCN(CC(O)COc3c(OC)cccc3OC)CC2)cc1` (stereo not drawn), for which the EC50 is inactive: > 30 µM. Regarding `Cc1cc(C)c(NC(=O)c2ccc(S(=O)(=O)N3CCOCC3)cc2)c(C)c1`, the EC50 was inactive: > 30 µM. As for `CC1CCCCN1c1ncnc(N)c1[N+](=O)[O-]` (stereo not drawn), the EC50 was inactive: > 30 µM. Consider `CNCCCOc1cc(C)cc(C)c1C`, for which the EC50 is inactive: > 30 µM. For the compound `Cc1ccccc1CSc1ccc2nnc(-c3ccccn3)n2n1`, the EC50 was inactive: > 30 µM.

Regarding `O=C(CC1NCCNC1=O)Nc1cc(Cl)cc(Cl)c1` (stereo not drawn), the EC50 is inactive: > 30 µM. Consider `CN1CCc2c(sc3c2c(=O)n(-c2cccc(Cl)c2)c2nncn32)C1`, for which the EC50 is inactive: > 30 µM. Take `Cc1ccc(-n2c(N)c(C(=O)NCc3cccnc3)sc2=S)cc1`: the EC50 is inactive: > 30 µM. In the case of `C=CCn1c(SCC(=O)Nc2ccc(Cl)cn2)nnc1C1CC1`, the EC50 is inactive: > 30 µM. Take `CC1=C(C(=O)OC(C)C)C(c2c[nH]c3ccccc23)n2ncnc2N1` (stereo not drawn): the EC50 is inactive: > 30 µM. For `O=C(NC1CCC(C(=O)O)CC1)OCc1ccccc1` (stereo not drawn), the EC50 was inactive: > 30 µM. With `COc1ccc(Oc2c(C)oc3c(CN(C)C)c(O)ccc3c2=O)cc1`, the EC50 is inactive: > 30 µM. The figure for `COc1ccc(C(=O)O/N=C(\C)c2ccccc2)cc1` is active: 24 µM; for `CCCN1CCN(CCCNC(=O)c2ccc3c(c2)NC(=O)c2ccccc2S3)CC1` it is inactive: > 30 µM. For the compound `CC1Cc2cc(S(=O)(=O)N3CCN(c4ccccc4)CC3)ccc2N1C(=O)C1CC1` (stereo not drawn), the EC50 is inactive: > 30 µM. In the case of `COCCN1C(=O)N[C@@H](c2cccc(C(F)(F)F)c2)[C@H](C(C)=O)[C@H]1C`, the EC50 was inactive: > 30 µM. Take `Fc1ccccc1Cn1c2[n+](c3ccc(C(F)(F)F)cc31)CCCCC2`: the EC50 is inactive: > 30 µM. Take `CC(C)Nc1nc(-c2cccnc2)nc(-c2ccccc2)c1C#N`: the EC50 is inactive: > 30 µM. Turning to `CCOc1cc(/C=N/N=C(N)N)ccc1OCc1ccc(Cl)cc1`, the EC50 was inactive: > 30 µM. As for `CC(C)CCSc1nnc(N)s1`, the EC50 was inactive: > 30 µM. Take `Cc1cccc(Nc2nc(NCc3ccco3)nc(N)c2[N+](=O)[O-])c1`: the EC50 was inactive: > 30 µM. Turning to `O=C(Nc1ncc(Cc2ccccc2Cl)s1)C1CCCO1` (stereo not drawn), the EC50 is inactive: > 30 µM. Consider `Nc1nc(NCc2ccccc2)nc(Nc2ccc(F)cc2)c1[N+](=O)[O-]`, for which the EC50 is inactive: > 30 µM. On to `Nc1nc(NCC2CCCO2)nc(Nc2ccccc2)c1[N+](=O)[O-]` (stereo not drawn), for which the EC50 was inactive: > 30 µM. As to `Cc1ccc(NC(=O)CSc2nccn2C)cc1F`, the EC50 is inactive: > 30 µM.

With `CC1(C)CC(=O)C2=C(C1)NC1=C(C(=O)c3ccccc31)C2c1ccc(O)cc1` (stereo not drawn), the EC50 is inactive: > 30 µM. Regarding `CCCn1nc(NC(=O)c2cccs2)c2cc3ccccc3nc21`, the EC50 is inactive: > 30 µM. On to `O=c1oc(-c2cccs2)nc2sc3c(c12)CCCCC3`, for which the EC50 was inactive: > 30 µM. Under `CCOC(=O)c1nnn(-c2nc(OC)nc(N3CCCC3)n2)c1-c1ccccc1` stands inactive: > 30 µM; under `CC1=C(C(N)=O)C(c2sccc2C)n2nnnc2N1` (stereo not drawn), inactive: > 30 µM; under `O=C1Nc2ccccc2Nc2ccc([N+](=O)[O-])cc21`, inactive: > 30 µM.

For the compound `O=C1Nc2ccccc2C1=Nc1cccc([N+](=O)[O-])c1`, the EC50 is inactive: > 30 µM. Take `CCOC(=O)COc1ccc(C(=O)c2ccccc2)c(O)c1`: the EC50 was inactive: > 30 µM. Under `Nc1ncnc2c1ncn2C1OC(CO)C(O)C1O` (stereo not drawn) stands inactive: > 30 µM; under `CC1=C(C(=O)Nc2ccccc2F)C(c2ccsc2)C2=C(CC(C)(C)CC2=O)N1` (stereo not drawn), inactive: > 30 µM; under `Nc1nonc1-n1nnc(C(=O)N/N=C/c2cc(Cl)ccc2O)c1CN1CCCCCC1`, inactive: > 30 µM. Take `COCCNC(=O)c1ccc(Cl)c(Cl)c1`: the EC50 is inactive: > 30 µM. As for `N#Cc1c(-c2cccs2)nc(SCc2ccc(Cl)cc2)[nH]c1=O`, the EC50 was inactive: > 30 µM. As to `O=c1cc(-c2ccccc2)c2ccc(O)cc2o1`, the EC50 was inactive: > 30 µM. Take `CCc1ccccc1NC(=O)CSc1nnc(-c2ccncc2)o1`: the EC50 is inactive: > 30 µM.
